This assay deals with P388 leukemia ip, CD2F1 mice, survival T/C. Kind of assay: NCI In Vivo Anticancer Drug Screen. Data for tumor model P388 Leukemia (intraperitoneal) in CD2F1 (CDF1) mice. As to conditions: T/C endpoint: median survival time, higher T/C = longer survival.
The mark [1] stands for this setting: dose: 60.0 mg/kg/injection, schedule: Q01DX005 (ip), vehicle: saline with Tween-80.
[2] abbreviates: dose: 200.0 mg/kg/injection, schedule: Q01DX009 (ip), vehicle: saline with Tween-80.
Where [3] appears, read: dose: 240.0 mg/kg/injection, schedule: Q01DX005 (ip), vehicle: saline with Tween-80.

The list is a part of this screen's results and no random one: it is rich in T/C values a quarter to a half above the control, in often repeated tests (any T/C) and in doses without a T/C. Further doses and runs are listed elsewhere. T/C gives the treated animals as a percentage of the vehicle group. Some doses have a count of surviving animals in place of a T/C: the source files T/C as zero there, which appears to mark a toxic dose or a test without result, not a measured value. Some survivor counts are full or nearly so, which does not show that the dose was tolerated: survival well below the control is almost never listed, so the zero probably covers shortened survival too. Survivors were counted at the toxicity check, usually on the fifth day, unless a day is given; later deaths do not show. Schedule codes are those of the source, taken here to give the interval after Q, in days (D) or hours (H), and the number of doses after X. Where survival is the endpoint, this PubChem deposit counts one and a half times the control or more as active, and values a quarter to a half above the control carry no call in these data; other NCI protocols may use other cut-offs. Some T/C values are followed by the survivors on the day toxicity was checked, most often the fifth; where none is given, no animal had died by that day. Some entries hold several experiments; the results are listed from low to high.

Consider `Cn1c(=S)[nH]c2sc3c(c2c1=O)CCCC3`, for which, under setting [1], the survivor count is 4 of 6.
For `[O-]c1n[n+](-c2ccccc2)no1`, the survivor count (dose: 50.0 mg/kg/injection, schedule: Q01DX009 (ip), vehicle: other) is 4 of 6 and the survivor count (dose: 100.0 mg/kg/injection, schedule: Q01DX009 (ip), vehicle: other) was 0 of 6.
Consider `CCOC(=O)/C=C(\I)C(=O)OCC`, for which the survivor count is listed as 0 of 6 (dose: 50.0 mg/kg/injection, schedule: Q01DX009 (ip), vehicle: saline with Tween-80); 0 of 6 (dose: 100.0 mg/kg/injection, schedule: Q01DX009 (ip), vehicle: saline with Tween-80); 0 of 6 under setting [2].
On to `CC(=O)NC1=C(N2CC2)C(=O)C(NC(C)=O)=C(N2CC2)C1=O`, for which the T/C (dose: 250.0 micrograms/kg/injection, schedule: Q01DX010 (ip), vehicle: saline) was 145 % of control.
As for `O=C1CSC(=O)N1c1cccc(C(F)(F)F)c1`, under setting [2], the survivor count is listed as 5 of 6.
For `CCOC(=O)c1nnc2cc(-c3ccccc3)nn2c1-c1ccccc1`, under setting [3], the survivor count is 6 of 6.
On to `O=NN1CCNC1=O`, for which the T/C was 136 % of control (dose: 3.0 mg/kg/injection, schedule: Q04DX003 (ip), vehicle: saline); 145 % of control (dose: 6.0 mg/kg/injection, schedule: Q04DX003 (ip), vehicle: saline); 145 % of control (dose: 6.25 mg/kg/injection, schedule: Q04DX003 (ip), vehicle: saline). The survivor count by setting is: (dose: 25.0 mg/kg/injection, schedule: Q01DX009 (ip), vehicle: saline) 6 of 6; (dose: 37.5 mg/kg/injection, schedule: Q04DX003 (ip), vehicle: saline) 5 of 6; (dose: 100.0 mg/kg/injection, schedule: Q04DX003 (ip), vehicle: saline with Tween-80) 3 of 6; (dose: 200.0 mg/kg/injection, schedule: Q04DX003 (ip), vehicle: saline with Tween-80) 0 of 6; (dose: 400.0 mg/kg/injection, schedule: Q04DX003 (ip), vehicle: saline with Tween-80) 0 of 6.
Regarding `N#CSc1ccc2nc(NC(NC=O)C(Cl)(Cl)Cl)sc2c1` (stereo not drawn), the survivor count (dose: 50.0 mg/kg/injection, schedule: Q01DX009 (ip), vehicle: Klucel (hydroxypropylcellulose) (HPC)) is given as 6 of 6; the survivor count (dose: 100.0 mg/kg/injection, schedule: Q01DX009 (ip), vehicle: Klucel (hydroxypropylcellulose) (HPC)) is reported as 6 of 6; the survivor count (dose: 200.0 mg/kg/injection, schedule: Q01DX009 (ip), vehicle: Klucel (hydroxypropylcellulose) (HPC)) is 0 of 6.
With `CCCCCCCC1C(=O)OC2CC3C(C)=CC(=O)C(O)C3(C)C3C4(O)OCC23C1C(C)C4O` (stereo not drawn), for the setting “dose: 20.0 mg/kg/injection, schedule: Q01DX005 (ip), vehicle: Klucel (hydroxypropylcellulose) (HPC)”, the T/C is 130 and 135 % of control [4 of 6 alive]. For the same compound, the survivor count (dose: 40.0 mg/kg/injection, schedule: Q01DX005 (ip), vehicle: Klucel (hydroxypropylcellulose) (HPC)) was 0 of 6.
For the compound `C[N+]1(C)C2CCC1CC(=O)C2`, under “dose: 50.0 mg/kg/injection, schedule: Q01DX009 (ip), vehicle: suspension in saline”, the survivor count is on record as 3 of 6.
Turning to `O=[N+]([O-])c1ccc2c(c1)C(N1CCN(CCO)CC1)Cc1ccc(F)cc1S2` (stereo not drawn), the survivor count is listed as 0 of 6 under setting [1]; 0 of 6 (dose: 120.0 mg/kg/injection, schedule: Q01DX005 (ip), vehicle: saline with Tween-80); 0 of 6 under setting [3].
Take `NNC(=O)C(=O)Nc1nccs1`: the survivor count under setting [3] is reported as 0 of 6.
For the compound `COc1ccc2c(c1O)C13CC=NC(C2)C1C(C)(C)C(C)(C)C(=O)C3` (stereo not drawn), the survivor count is 5 of 5 (dose: 100.0 mg/kg/injection, schedule: Q01DX005 (ip), vehicle: saline with Tween-80) and 0 of 5 (dose: 200.0 mg/kg/injection, schedule: Q01DX005 (ip), vehicle: saline with Tween-80).
Take `CCCCN(CC(O)CNc1cc(OC)cc2cccnc12)C(C)CC` (stereo not drawn): the survivor count is, setting by setting: (dose: 50.0 mg/kg/injection, schedule: Q01DX005 (ip), vehicle: saline) 1 of 6; (dose: 100.0 mg/kg/injection, schedule: Q01DX005 (ip), vehicle: saline) 0 of 6.
Consider `Cc1c[nH]c2nc(C)n(-c3ccccc3)c(=N)c12`, for which the survivor count is, setting by setting: (dose: 100.0 mg/kg/injection, schedule: Q01DX005 (ip), vehicle: Klucel (hydroxypropylcellulose) (HPC)) 2 of 6; (dose: 200.0 mg/kg/injection, schedule: Q01DX005 (ip), vehicle: Klucel (hydroxypropylcellulose) (HPC)) 0 of 6.
